In patent US20240228660A1:
These are yes or no findings as the source states them, for the method shown.

By UniProt entry, the sequences of proteins in these tests, tags left out. Residues count along the entry.
UniProt P02769, residues 25-607: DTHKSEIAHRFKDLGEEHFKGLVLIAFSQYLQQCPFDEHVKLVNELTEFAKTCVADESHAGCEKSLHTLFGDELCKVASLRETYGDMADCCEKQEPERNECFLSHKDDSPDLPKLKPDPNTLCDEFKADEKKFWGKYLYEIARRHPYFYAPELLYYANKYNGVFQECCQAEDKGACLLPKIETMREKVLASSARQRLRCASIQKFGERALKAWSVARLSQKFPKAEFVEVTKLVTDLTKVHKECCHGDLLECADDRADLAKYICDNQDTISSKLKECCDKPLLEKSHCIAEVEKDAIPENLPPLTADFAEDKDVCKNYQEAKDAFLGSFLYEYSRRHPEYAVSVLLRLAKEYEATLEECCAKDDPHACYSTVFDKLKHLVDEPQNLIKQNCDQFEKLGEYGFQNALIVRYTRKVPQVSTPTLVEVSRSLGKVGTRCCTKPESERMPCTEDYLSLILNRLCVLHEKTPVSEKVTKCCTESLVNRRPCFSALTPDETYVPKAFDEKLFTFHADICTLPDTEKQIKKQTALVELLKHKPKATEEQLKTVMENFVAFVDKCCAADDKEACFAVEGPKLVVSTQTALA

Biological target: BSA (UniProt P02769)
Assay: ELISA, BSA coated at 100 ng/well, semi-log dilution of the mAb from 10 µg/ml, anti-human IgG-HRP/TMB

- binding: no binding (tested: 10 µg/ml)
B1: 4-H9 (antibody, human IgG1, V domains shown)
VH: QSVEESGGRLVTPGTPLTLTCTASGFSLNSFAMSWVRQAPGKGLEWIGIITVDGHTYYASWAKGRFTISKASTTVDLKITSPTTEDTATYFCAREDAGDAGYIYATYNIWGPGTLVTVSS
VL: AIEMTQTPSSLAASVGDTVTITCKASEDIGYGLAWYQQKLGIAPKLLIYGANTLESGVPSRFSGSGSETDYTLTISSVQAEDAGIYYCQQGYSTPPTFGAGTMVEIQ
